# Results taken from PubChem BioAssay AID540256 (National Center for Advancing Translational Sciences (NCATS), 2011).
# Out of some 300,000 compounds screened, about 3,700 (1.2%) were called active. The shares of active, inactive and inconclusive entries below differ from those in the screen. Calls come from the whole dose curve; tested in HEK293 cells. Potencies beside an inconclusive call are fits to weak or partial responses and may not hold up.
# Assay: qHTS for Inhibitors of binding or entry into cells for Lassa Virus; note: nearly all actives have a fitted effect of over 50% in size
# Details: Lassa virus pseudotype entry inhibition, cell reporter; series mostly up to 37.9 µM
# Potency is the fitted concentration of half-maximal effect.
row,SMILES,Potency
1,CCc1cccc2c(-c3ccccc3)nc(SCC(=O)Nc3ccccc3)nc12,inactive
2,COc1ccc(N2CCN(CCCNC(=O)C3COc4ccc(OC)cc4C3)CC2)cc1 (configuration not stated),inactive
3,COc1ccc(N(C(=O)Cn2cnc3ccccc32)C(C(=O)NC2CCCCC2)c2ccccc2)cc1 (configuration not stated),"inconclusive: 13 µM [inhibitor, partial curve]"
4,CN(C(=O)c1ccccc1OCc1ccc(Cl)cc1)c1ccccc1,"inconclusive: 10 µM [inhibitor, partial curve]"
5,CCOC(=O)c1noc2ncnc(N(CCC(=O)OC)c3ccccc3)c12,inactive
6,N=c1n(CCO)c2ccccc2n1Cc1ccccc1Cl,"inconclusive: 1.26 µM [activator, single point]"
7,N#CCCn1cc(C(=O)Nc2ccc([N+](=O)[O-])cc2)c(-c2ccc3c(c2)OCCO3)n1,"inconclusive: 5.62 µM [inhibitor, single point]"
8,O=C(Nc1ccc(F)cc1)N(Cc1cccs1)Cc1cc2cc3c(cc2[nH]c1=O)OCO3,"inconclusive: 35.5 µM [inhibitor, single point]"
9,O=C(c1csc2c1CCCC2)N1CCN(c2ccc(F)cc2)CC1,"inconclusive: 20.6 µM [inhibitor, partial curve, poor fit]"
10,COc1cc(NC(=O)c2ccc(Cl)cc2)c(OC)cc1NC(=O)CN1CCOCC1,"inconclusive: 12.6 µM [inhibitor, partial curve, poor fit]"
11,Cn1c(=O)c2[nH]c(COc3ccccc3)nc2n(C)c1=O,"inconclusive: 0.562 µM [inhibitor, partial curve, poor fit]"
12,COc1ccc(-c2cn3cccnc3n2)cc1F,"inconclusive: 10.3 µM [activator, partial curve, poor fit]"
13,O=C(CCc1ccccc1)NC(NC(=S)Nc1ccc(Cl)cc1)C(Cl)(Cl)Cl (configuration not stated),"inconclusive: 15.8 µM [inhibitor, single point]"
14,CC(C)CC1C(=O)N(Cc2cn(CCC3OCCCO3)nn2)CCS(=O)(=O)N1Cc1ccc(-c2ccc(Cl)nc2)cc1 (configuration not stated),"inconclusive: 12.5 µM [activator, single point]"
15,Cc1cccc2nc(-c3cccnc3)c(Nc3ccc(C(C)C)cc3)n12,"inconclusive: 25.1 µM [inhibitor, single point]"
16,CCN(Cc1ccccc1)C(=O)c1ccc(CNS(=O)(=O)c2ccc(C)cc2)cc1,"inconclusive: 25.9 µM [inhibitor, single point]"
17,Cc1ccc(CNC(=O)c2ccccc2NC(=O)CSc2nnnn2C)cc1,"inconclusive: 3.55 µM [activator, single point]"

# 2 entries drawn at random from the list so far, as already listed:
row,SMILES,Potency
11,Cn1c(=O)c2[nH]c(COc3ccccc3)nc2n(C)c1=O,"inconclusive: 0.562 µM [inhibitor, partial curve, poor fit]"
12,COc1ccc(-c2cn3cccnc3n2)cc1F,"inconclusive: 10.3 µM [activator, partial curve, poor fit]"
